Laboratory results from US20220177576A1.
No constants are given. Whether binding was seen depends on the method and setting. Some entries that bind do so weakly or less than the wild type.

Columns and labels:
[1] = target: T1, human TREM2 expressed on HEK293-H6 cells (human) (UniProt Q9NZC2); test: flow cytometry, dose titration on HEK 293 cells expressing human TREM2 (TREM2-expressing HEK)
T1 sequence: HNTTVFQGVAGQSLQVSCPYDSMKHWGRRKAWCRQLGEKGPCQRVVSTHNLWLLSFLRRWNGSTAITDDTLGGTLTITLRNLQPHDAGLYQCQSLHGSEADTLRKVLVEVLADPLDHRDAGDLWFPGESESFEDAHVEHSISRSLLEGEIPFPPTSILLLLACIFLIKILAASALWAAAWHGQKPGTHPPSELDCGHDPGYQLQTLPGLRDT

[2] = target: recombinant human TREM2 ECD (human) (UniProt Q9NZC2); test: SPR (Biacore)
[3] = target: T1, human TREM2 expressed on HEK293-H6 cells (human); test: flow cytometry on HEK293-H6 cells

Binder	binding [1]	binding [2]	binding [3]
TREM2 Ab (antibody, human IgG1, kappa, L234A L235A, V domains shown) VH: EVQLVESGGGLVQPGGSLRLSCAASGFTFTDFYMSWVRQAPGKGLEWVSVIRNKANAYTAGYNPSVKGRFTISRDNSKNTLYLQMNSLRAEDTAVYYCARLTYGFDYWGQGTLVTVSS VL: DIVMTQTPLSLPVTPGEPASISCQSSKSLLHSTGKTYLNWYLQKPGQSPQLLIYWMSTRASGVPDRFSGSGSGTDFTLKISRVEAEDVGVYYCQQFLEYPFTFGQGTKVEIKR	binds		
CL0020188-2 (antibody, V domains shown) VH: EVQLVESGGGLVQPGGSLRLSCAGSGFTFTDFYMSWVRQAPGKGPEWLSVIRNKANGYTAGYNPSVKGRFTISRDNSKNTLYLQMNSLRAEDTAVYYCARLTYGFDYWGQGTLVTVSS VL: DIVMTQTPLSLPVTPGEPASISCQSSKSLLHSNGKTYLNWYLQKPGQSPQLLIYWMSTRASGVPDRFSGSGSGTDFTLKISRVEAEDVGVYYCQQFLEYPFTFGQGTKVEIK		binds	binds
CL0020188-4 (antibody, V domains shown) VH: EVQLVESGGGLVQPGGSLRLSCAGSGFTFTDFYMSWVRQAPGKGPEWLSVIRNKANGYTAGYNPSVKGRFTISRDNSKNTLYLQMNSLRAEDTAVYYCARLTYGFDYWGQGTLVTVSS VL: DIVMTQTPLSLPVTPGEPASISCQSSKSLLHSTGKTYLNWYLQKPGQSPQLLIYWMSTRASGVPDRFSGSGSGTDFTLKISRVEAEDVGVYYCQQFLEYPFTFGQGTKVEIK		binds	binds
